Test results reported in US20230338564A1 (Orum Therapeutics, Inc., priority 2020, published 2023).

Test: general procedure: solution-phase peptide synthesis; HATU/HOBT/DIEA
Settings: late stage modification step, TFA salt

For “(2S)-2-[2-(2-aminoacetamido)acetamido]-N-([[(2-[2-chloro-4-[([[2-(2,6-dioxopiperidin-3-yl)-1-oxo-3H-isoindol-5-yl]methyl]carbamoyl)amino]phenyl]ethoxy)methyl]-carbamoyl]methyl)-3-phenylpropanamide; trifluoroacetic acid”, which step yield is on record?
The step yield was 79%.
